The other results are listed elsewhere or left out. Shown are side measurements of this screen, not its main read-out; they come without a call. Compounds called inactive in the main read-out are mostly missing here. Words in brackets tell the shape of the fitted curve; partial curves, single points and poor fits give uncertain potencies.
Assay: IkB Signaling
Conditions: ABC-DLBCL IkBa-CBG/CBR dual luciferase ratio (green luciferase fused to IkBa over red control in OCI-Ly3 lymphoma cells), 4 h
How it was run: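 Curves were fitted separately to fusion (green), unfused (red) and ratio luminescence, then classed by r2, magnitude and activity. Cells: OCI-Ly3, 4 h compound plus doxycycline at 37C; 10 uM MG-132 defined full response.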

[1] = measured here: control luc red channel unless noted

Cc1cc(C(=O)NCc2cccs2)c(C)o1
AC50 (measured here: IkB-luc green channel): 6.31 µM [rising, single point]
AC50 (measured here: control luc red channel): 31.6 µM [falling, single point]

CC(C)c1ccc(C2CC(=O)N3CN(Cc4ccco4)CSC3=C2C#N)cc1 (stereo not drawn)
AC50 [1]: 10 µM [falling, partial curve]

Cc1cc(C(=O)N2CCN(c3cccc(C)c3C)CC2)c2c(C)nn(-c3ccccc3)c2n1
AC50 [1]: 10 µM [falling, partial curve]

CCOC(=O)c1sc(NC(=O)C2c3ccccc3Oc3ccccc32)c(C#N)c1C
AC50 [1]: 3.98 µM [falling, full curve]

Cc1ccc(C(=O)c2cn(CC(=O)NCc3ccccc3Cl)c3nc(C)ccc3c2=O)cc1
AC50 [1]: 1 µM [falling, full curve, poor fit]

CCCC(=O)NC(C)c1nc2ccccc2n1Cc1ccccc1 (stereo not drawn)
AC50 [1]: 31.6 µM [falling, single point]

O=C(O)CCCCCNC(=O)c1cccc(Br)c1
AC50 [1]: 3.16 µM [falling, full curve]

Cc1c(C(=O)N(C)C)sc2c1c(=O)n(-c1ccc(Cl)cc1)c(=O)n2Cc1ccccc1F
AC50 [1]: 6.31 µM [rising, single point]

COc1ccc(C)cc1NC(=O)CCC(=O)Nc1ccc2nc(N3CCN(C)CC3)cc(C)c2c1
AC50 [1]: 15.8 µM [falling, partial curve]

CCc1ccccc1-n1c(C)nc2cc(C(=O)NCCc3ccc(Cl)cc3)ccc21
AC50 [1]: 31.6 µM [falling, single point]

Cc1ccc(-n2ncc(C(=O)NCCN3CCCC3)c2C2CCN(C(=O)OC(C)(C)C)CC2)cc1C
AC50 [1]: 15.8 µM [falling, partial curve]

COc1cccc(-c2cc(C(=O)Nc3c(C)nn(Cc4ccccc4C)c3C)no2)c1
AC50 [1]: 10 µM [falling, partial curve]

CC(=O)Nc1cccc(NC(=O)c2c(-c3ccccc3Cl)noc2C)c1
AC50 [1]: 12.6 µM [falling, partial curve]

COc1ccc(OC)c2sc(N3CCN(C(=O)CCS(=O)(=O)c4ccc(F)cc4)CC3)nc12
AC50 [1]: 39.8 µM [falling, single point]

COC(=O)c1ccc2c(c1)N(Cc1ccc(Cl)cc1)C(=O)c1ccccc1S2
AC50 [1]: 12.6 µM [falling, partial curve]

CC1CCN(CCCNC(=O)c2coc3nc4ccccc4nc23)CC1
AC50 [1]: 7.94 µM [falling, partial curve]

Cc1oc(-c2cccc(Cl)c2)nc1CN1CCCC(C(=O)NC(C)c2ccc3c(c2)OCCO3)C1 (stereo not drawn)
AC50 [1]: 25.1 µM [falling, partial curve]

CC1=CC(C)(C)N2C(=O)C3(SCC(=O)N3c3ccc(O)cc3)c3cc(C)cc1c32 (stereo not drawn)
AC50 [1]: 20 µM [falling, partial curve]

CCOc1ccc(CCNc2ncnc3onc(-c4ccc(Cl)cc4)c23)cc1OCC
AC50 [1]: 3.16 µM [falling, single point]

COc1ccc(NC(=O)C(c2ccc(C)cc2)N(C)C(=O)/C=C\c2ccc3c(c2)OCO3)cc1 (stereo not drawn)
AC50 [1]: 3.16 µM [falling, full curve]

CCOC(=O)c1ccc(NC(=O)CCc2c(C)nc3c(c(C)nn3-c3ccccc3)c2C)cc1
AC50 [1]: 12.6 µM [falling, partial curve]

COc1cccc(C2=C(C(C)=O)Sc3nncn3N2C(C)=O)c1
AC50 [1]: 31.6 µM [rising, single point] [measured here: IkB-luc green channel]

Cc1cccc(C(=O)Nc2sc3c(c2C(=O)N2CCCCC2)CCC(C)C3)c1 (stereo not drawn)
AC50 [1]: 12.6 µM [falling, partial curve]

Cn1c(SCC(=O)N2c3ccccc3Sc3ccc(Cl)cc32)nnc1-c1ccco1
AC50 [1]: 39.8 µM [falling, single point]

Cc1oc2ccc(O)c(CN(C)Cc3ccccc3)c2c1C(=O)Nc1ccccc1
AC50 [1]: 12.6 µM [falling, partial curve]

O=C(CCc1cn(Cc2ccc(F)cc2)c2ccccc12)NCCc1ccc(Cl)cc1
AC50 [1]: 12.6 µM [falling, partial curve]

CCN(c1ccccc1)c1nnc(NC(=O)Nc2ccc(Br)cc2)s1
AC50 [1]: 15.8 µM [falling, partial curve]

COc1cccc(NC(=O)CSc2nc3ccc(NC(=O)c4cccs4)cc3s2)c1
AC50 [1]: 7.94 µM [falling, partial curve]

Cc1ccc(C(=O)CC2(O)C(=O)N(Cc3ccccc3F)c3ccccc32)cc1 (stereo not drawn)
AC50 [1]: 20 µM [falling, partial curve]

Oc1ccc(CNc2ccc(F)cc2)c2cccnc12
AC50 [1]: 7.94 µM [falling, partial curve]

Cc1ccc(NC(=O)Nc2nnc(N3CCCC3)s2)cc1
AC50 [1]: 15.8 µM [falling, partial curve]

Cc1cc(C)cc(NC(=O)CN(c2cc(C(F)(F)F)ccc2Cl)S(=O)(=O)c2ccccc2)c1
AC50 [1]: 25.1 µM [falling, partial curve]

O=C(CCS(=O)(=O)c1nc(-c2cccs2)cc(C(F)(F)F)n1)Nc1ccc(OC(F)(F)F)cc1
AC50 [1]: 2.51 µM [falling, full curve]

COC(=O)c1ccccc1NC(=O)C1=CC(c2ccc(C)cc2)=NS(=O)(=O)N1C
AC50 [1]: 12.6 µM [falling, partial curve]

COc1cccc(-c2nn(C)c3sc(C(=O)NCc4cc(OC)ccc4OC)cc23)c1
AC50 [1]: 3.16 µM [falling, full curve]

O=C(NC1CC1)c1cccc(Nc2ccc(-c3ccc4c(c3)OCCO4)nn2)c1
AC50 [1]: 3.98 µM [falling, partial curve]

CC(=O)c1ccc(NC(=O)CCc2c(C)nc3c(c(C)nn3-c3ccc(C)cc3)c2C)cc1
AC50 [1]: 10 µM [falling, partial curve]

CC(=O)Nc1ccc(S(=O)(=O)N2CCN(c3cccc(C)c3C)CC2)cc1
AC50 [1]: 12.6 µM [falling, partial curve]

COc1ccccc1NC(c1ccc(Cl)cc1)c1nnc(-c2cccc(F)c2)o1 (stereo not drawn)
AC50 [1]: 15.8 µM [falling, partial curve]

CC(C)(C)c1ccc(Cn2c(Cc3ccccc3)nc3ccccc32)cc1
AC50 [1]: 12.6 µM [falling, partial curve]

CCOc1ccc(-c2nonc2NC(=O)c2oc3ccc(F)cc3c2C)cc1
AC50 [1]: 1 µM [falling, full curve, poor fit]

Cc1cc(C)n(-c2nncn2NC(=O)c2ccc(Cl)cc2O)n1
AC50 [1]: 15.8 µM [falling, partial curve]

O=C(COc1ccccc1Cl)Nc1cc(-c2ccccc2F)nn1-c1ccccc1
AC50 [1]: 12.6 µM [rising, single point]

COc1cccc(NC(=O)CSC2=Nc3ccccc3C3=NC(CC(=O)NC4CCCCC4)C(=O)N23)c1 (stereo not drawn)
AC50 [1]: 0.126 µM [falling, full curve, poor fit]

COc1cc(OC)c(OC)cc1/C=C/c1nc2cc3ccccc3cc2c(=O)n1-c1ccc(F)cc1F
AC50 [1]: 0.501 µM [falling, full curve]

Cc1ccc2c(c1)-c1cc(C)nn1C(c1cc(Br)ccc1O)N2 (stereo not drawn)
AC50 [1]: 20 µM [falling, single point]

Cc1ccc(/C=N/c2sc3c(c2C#N)CCCCC3)o1
AC50 [1]: 12.6 µM [falling, partial curve]

O=S(=O)(Nc1nc2n(n1)C(c1ccc(F)cc1)C=C(c1ccccc1)N2)c1ccccc1 (stereo not drawn)
AC50 [1]: 39.8 µM [falling, single point]

COC(=O)c1ccc2c(=O)n(CCCCCC(=O)NCc3ccc(Cl)cc3)c(=O)[nH]c2c1
AC50 [1]: 3.98 µM [rising, partial curve, poor fit]

Cc1ccc2ncc(C(=O)Nc3ccc(F)cc3F)c(=O)n2c1
AC50 [1]: 2 µM [rising, partial curve]

CCc1ccc(CNC(=O)c2ccc(NC(=O)N3CC(C)Sc4ccccc43)cc2)cc1 (stereo not drawn)
AC50 [1]: 10 µM [falling, partial curve]

CC(C)(C)c1ccc(C(=O)NCC(c2cccs2)S(=O)(=O)c2ccccc2)cc1 (stereo not drawn)
AC50 [1]: 2.51 µM [rising, partial curve]

Cc1nn2c(-c3cccc(NC(=O)c4ccccc4)c3)nnc2c2ccccc12
AC50 [1]: 39.8 µM [falling, single point]

COc1ccc(CNC(=O)c2ccc(N3CCCC3)c(NC(=O)NCc3ccc(C)cc3)c2)cc1
AC50 [1]: 10 µM [falling, partial curve]

O=C(Cc1ccccc1)N(Cc1cccnc1)c1nc2c(F)cc(F)cc2s1
AC50 [1]: 3.16 µM [falling, partial curve]

Cc1cccc(N2CCN(C(=O)CCc3nnc4n(CC(C)C)c(=O)c5ccccc5n34)CC2)c1C
AC50 [1]: 12.6 µM [falling, partial curve]

CCCn1c(NCc2cc(C)ccc2O)nc2ccccc21
AC50 [1]: 20 µM [falling, partial curve]

CC(C)c1ccc(OCC(=O)NC(Cc2c[nH]c3ccccc23)C(=O)O)cc1 (stereo not drawn)
AC50 [1]: 39.8 µM [falling, single point]

CCc1ccccc1NC(=O)CN(Cc1ccccc1)S(=O)(=O)c1ccc(Br)cc1
AC50 [1]: 7.94 µM [falling, partial curve]

COc1ccc(CCNC(=O)c2ccc3c(c2)N(Cc2c(F)cccc2Cl)C(=O)CS3)cc1OC
AC50 [1]: 39.8 µM [falling, single point]

CCc1ccccc1N(CC)C(=O)c1c(C)oc2ncnc(N3CCOCC3)c12
AC50 [1]: 20 µM [falling, partial curve]

COc1ccc(NC(=O)Nc2nnc(C)s2)cc1
AC50 [1]: 0.501 µM [rising, single point]
